Assay results as given in PubChem BioAssay AID330 (DTP/NCI, 2004).
The list shows only some results of the screen, not a fair sample: it gathers tests that were run many times, whatever their T/C, doses with no T/C, and many T/C values between a quarter and a half above the control. Further doses and runs are listed elsewhere. T/C is the treated group as % of the vehicle group. Some entries give survivors of the animals treated and no T/C: the source files T/C as zero there, which appears to mark a toxic dose or a test without result, not a measured value. Some survivor counts are full or nearly so, which does not show that the dose was tolerated: survival well below the control is almost never listed, so the zero probably covers shortened survival too. Counts of survivors are from the toxicity check (mostly the fifth day) where no day follows; animals may have died later. Schedule codes are those of the source, read here as Q, the interval in days (D) or hours (H), X, the number of doses. Some structures stand for samples that the source files as different forms (salt, stereo form or complex); doses refer to the form tested. Signs of the kind (2×) say how often a value occurs here. Some entries were tested several times; their values stand side by side, smallest first. Where survival is the endpoint, this PubChem deposit counts one and a half times the control or more as active, and values a quarter to a half above the control carry no call in these data; other NCI protocols may use other cut-offs. Some T/C values are followed by the survivors on the day toxicity was checked, most often the fifth; without a count, all were alive then.

Test system: P388 leukemia ip, CD2F1 mice, survival T/C
Assay: NCI In Vivo Anticancer Drug Screen. Data for tumor model P388 Leukemia (intraperitoneal) in CD2F1 (CDF1) mice
Details: T/C endpoint: median survival time, higher T/C = longer survival
[1] = dose: 200.0 mg/kg/injection, schedule: Q01DX009 (ip), vehicle: saline
[2] = dose: 400.0 mg/kg/injection, schedule: Q01DX009 (ip), vehicle: saline with Tween-80
[3] = dose: 200.0 mg/kg/injection, schedule: Q01DX005 (ip), vehicle: Klucel (hydroxypropylcellulose) (HPC)
[4] = dose: 50.0 mg/kg/injection, schedule: Q01DX005 (ip), vehicle: Klucel (hydroxypropylcellulose) (HPC)
[5] = dose: 100.0 mg/kg/injection, schedule: Q01DX005 (ip), vehicle: Klucel (hydroxypropylcellulose) (HPC)
[6] = dose: 12.5 mg/kg/injection, schedule: Q01DX009 (ip), vehicle: saline with Tween-80
[7] = dose: 25.0 mg/kg/injection, schedule: Q01DX009 (ip), vehicle: saline with Tween-80
[8] = dose: 50.0 mg/kg/injection, schedule: Q01DX009 (ip), vehicle: saline with Tween-80

With `CCCCOCC(=O)O` the survivor count [1] was 4 of 6.

With `S=c1nc[nH]c2ccc3[nH]ncc3c12` the survivor count (dose: 50.0 mg/kg/injection, schedule: Q01DX005 (ip), vehicle: saline with Tween-80) was 6 of 6, the survivor count (dose: 100.0 mg/kg/injection, schedule: Q01DX005 (ip), vehicle: saline with Tween-80) was 5 of 6 and the survivor count (dose: 200.0 mg/kg/injection, schedule: Q01DX005 (ip), vehicle: saline with Tween-80) was 6 of 6.

`COc1ccc2ccccc2c1C1=CC(c2ccccc2)C(c2cc(C)n(-c3ccccc3)n2)C(=O)N1` (stereo not drawn) was tested, and the survivor count (dose: 400.0 mg/kg/injection, schedule: Q04DX002 (ip), vehicle: saline with Tween-80) was 4 of 6.

In the case of `CC(C)CC(C)(c1ccc(O)cc1)c1ccc(O)cc1`, the survivor count [2] is reported as 2 of 6.

`N#CC(C#N)=CN` was tested, and the survivor count [2] was 5 of 6.

With `CCC[CH2][Sn](=[O])[c]1ccccc1` the T/C (dose: 100.0 mg/kg/injection, schedule: Q04DX002 (ip), vehicle: saline) was 147 % of control [5 of 6 alive], the survivor count (dose: 200.0 mg/kg/injection, schedule: Q04DX002 (ip), vehicle: saline) was 2 of 6 and the survivor count (dose: 400.0 mg/kg/injection, schedule: Q04DX002 (ip), vehicle: saline) was 1 of 6.

In the case of `COC(C(=O)N/C(N)=N/O)c1c(Cl)cccc1Cl` (stereo not drawn), the survivor count [3] is reported as 1 of 6.

In the case of `Clc1c2ccccc2cc2cccnc12`, the survivor count (dose: 50.0 mg/kg/injection, schedule: Q01DX009 (ip), vehicle: saline) is reported as 5 of 6 and the survivor count (dose: 100.0 mg/kg/injection, schedule: Q01DX009 (ip), vehicle: saline) is reported as 6 of 6.

For `C=C(Cl)C(=NC(C)C)Nc1ccccc1C`, the T/C (dose: 6.25 mg/kg/injection, schedule: Q01DX005 (ip), vehicle: Klucel (hydroxypropylcellulose) (HPC)) was 131 % of control, the survivor count [4] was 0 of 6 and the survivor count [5] was 0 of 6. For the same molecule, the survivor count [3] was 0 of 6.

In the case of `CCC1N=C(N)N=C(N)N1c1ccc(Cl)c(Cl)c1` (stereo not drawn), the T/C (dose: 25.0 mg/kg/injection, schedule: Q01DX005 (ip), vehicle: Klucel (hydroxypropylcellulose) (HPC)) is reported as 127 % of control [4 of 5 alive], the survivor count [4] is reported as 2 of 5 and the survivor count [5] is reported as 0 of 5. For the same molecule, the survivor count [3] was 0 of 5.

`O=[N+]([O-])c1ccc(Sc2ccccn2)nc1Sc1ccccn1` was tested, and the survivor count (dose: 6.25 mg/kg/injection, schedule: Q01DX009 (ip), vehicle: saline with Tween-80) was 6 of 6, the survivor count [6] was 6 of 6 and the survivor count [7] was 6 of 6. The survivor count [8] was 6 of 6 and the survivor count (dose: 100.0 mg/kg/injection, schedule: Q01DX009 (ip), vehicle: saline with Tween-80) was 5 of 6.

In the case of `CCCCCCCCCCCCCCCC[N+](C)(C)CCBr`, the survivor count [6] is reported as 5 of 6, the survivor count [7] is reported as 0 of 6, 2 of 6, 3 of 6 and the survivor count [8] is reported as 0 of 6 (2×).

For `Cc1ccc(S)c(S)c1`, the survivor count (dose: 50.0 mg/kg/injection, schedule: Q01DX009 (ip), vehicle: DMSO) was 0 of 6, the survivor count (dose: 100.0 mg/kg/injection, schedule: Q01DX009 (ip), vehicle: DMSO) was 0 of 6 and the survivor count (dose: 200.0 mg/kg/injection, schedule: Q01DX009 (ip), vehicle: DMSO) was 0 of 6. For the same molecule, the T/C [1] was 129 % of control [5 of 6 alive], the survivor count [1] was 4 of 6 and the survivor count (dose: 400.0 mg/kg/injection, schedule: Q01DX009 (ip), vehicle: DMSO) was 0 of 6. The survivor count (dose: 400.0 mg/kg/injection, schedule: Q01DX009 (ip), vehicle: saline) was 2 of 6 and the survivor count (dose: 600.0 mg/kg/injection, schedule: Q01DX009 (ip), vehicle: saline) was 3 of 6.

In the case of `O=C(CCl)N1CC2CCC(CC2)C1`, the survivor count (dose: 200.0 mg/kg/injection, schedule: Q01DX009 (ip), vehicle: saline with Tween-80) is reported as 2 of 6.
